Data: PubChem BioAssay AID2685 (National Center for Advancing Translational Sciences (NCATS), 2010)
This is one part of the list. Further columns of the screen follow, without active or inactive calls. Compounds called inactive in the main read-out are mostly missing here. Potencies come from curve fits of mixed quality, noted in brackets.

Experiment: qHTS Assay for Lipid Storage Modulators in Drosophila S3 Cells;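 on cell number change: cells counted by Cell Tracker Red CMTPX staining in the red channel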
Conditions: BODIPY lipid droplet fluorescence, 18-24 h; for cell number change: measured here: cell count max response, cells fed with added oleic acid
Outline: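 Drosophila S3 cells got compounds at several concentrations plus oleic acid (400 uM solution). Laser-scanning cytometry with 488 nm excitation read lipid droplets at 500-530 nm and cells at 575-640 nm. Percent activity was relative to 20 uM Triacsin C.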

[1] = measured here: lipid fluorescence (Fed channel) AC50, cells fed with added oleic acid
[2] = measured here: cell number channel AC50, cells fed with added oleic acid

SMILES	cell number change	AC50 [1]	AC50 [2]
CC1CC(C)CN(C(=O)COC(=O)c2ccc(Cl)nc2)C1 (stereo unspecified)	-28.8%	0.13 µM [falling, full curve]	
NC[C@H](Cc1ccccc1)NCCCCC1CCCCC1	-41.1%	0.0058 µM [rising, full curve, poor fit]	25.9 µM [falling, single point]
O=C(O)CCNc1nc(C(F)(F)F)nc2ccccc12	-42.3%		
N#Cc1ccc(OC(=O)C2CCN(C3=NS(=O)(=O)c4ccccc43)CC2)cc1	3.31%	6.51 µM [falling, single point]	6.51 µM [falling, single point]
COc1ccc(NC(=O)CSc2nc(=O)n(CCN3CCOCC3)c3c2CCC3)cc1	32.6%	9.2 µM [rising, partial curve, poor fit]	
CCOC(=O)C(c1ccccc1)N1CCN(c2ccc(OC)cc2)CC1 (stereo unspecified)	41.7%		0.651 µM [rising, full curve]
CCN1CCN(C2=C(NS(=O)(=O)c3ccc(C)cc3)C(=O)c3ccccc3C2=O)CC1	-17.2%	4.61 µM [falling, single point]	
CCOC(=O)c1c(C)[nH]c(C(=O)COC(=O)c2cnccn2)c1C	-12.1%	29.1 µM [rising, single point]	
C=CC(C)(C)c1cc2cc3ccoc3cc2oc1=O	-34.1%	16.4 µM [falling, single point]	20.6 µM [falling, single point]
CSc1ccccc1NC(=O)c1ccc(C)o1	35.1%	0.092 µM [rising, full curve, poor fit]	18.4 µM [rising, single point]
COc1cc(S(=O)(=O)NCC2COCCO2)ccc1-n1cnnn1 (stereo unspecified)	-11.6%	5.8 µM [rising, full curve, poor fit]	
O=C(NOC(=O)c1ccccc1F)c1ccc(OC(F)F)cc1		0.116 µM [rising, partial curve, poor fit]	
CCN1C(C(=O)c2ccccc2)=C(Nc2ccccc2C)c2ccccc2S1(=O)=O	-13.7%	0.731 µM [falling, partial curve, poor fit]	
C=CCN1CN(S(=O)(=O)c2cccs2)c2nc3ccccc3nc21	15.7%	1.3 µM [rising, partial curve]	
NC(=O)C1CC(=O)N(c2ccc(OCC(=O)Nc3cccc(C(F)(F)F)c3)cc2)C1 (stereo unspecified)	21.4%	0.651 µM [falling, single point]	
COc1cc(/C=N/NC(=O)Cc2nnc(N)s2)cc(OC)c1OC	-16.7%	29.1 µM [falling, single point]	
CCCCn1c(N)c(N(CC(C)C)C(=O)C(C)SCc2nc3sc(C)c(C)c3c(=O)[nH]2)c(=O)[nH]c1=O (stereo unspecified)	-8.87%	29.1 µM [falling, single point]	
Cc1occc1-c1nnc(SCC(=O)Nc2c(F)cccc2F)n1C	48.5%	23.1 µM [rising, partial curve]	16.4 µM [rising, single point]
O=C(CC(c1ccccc1)c1ccccc1O)NCCN1CCOCC1 (stereo unspecified)	-1.89%	16.4 µM [falling, partial curve]	

SMILES	cell number change	AC50 [1]	AC50 [2]
COCCN(C(=O)c1csnn1)C(C(=O)NC(C)(C)C)c1cccc(OC)c1 (stereo unspecified)	-143%		29.1 µM [falling, single point]
CCc1cc(=O)oc2c3c(cc(OCC(=O)NCc4ccccn4)c12)OC(C)(C)CC3	0.291%	18.4 µM [falling, single point]	
Cc1nc2ccc(NS(=O)(=O)c3ccc4c(c3)OCCO4)cc2s1	-40.3%	29.1 µM [falling, single point]	18.4 µM [falling, partial curve, poor fit]
CCn1c(CSc2ncccn2)nnc1SCC(=O)N1CCc2ccccc21	0.0277%	1.84 µM [rising, single point]	
Cc1ccc2c(c1)cc1c(=O)n(CC(=O)N3CCCC3)nc(C)n12	-2.31%	0.116 µM [rising, partial curve, poor fit]	
CCc1ccc2c(c1)C1(NN=C(c3cccc4ccccc34)S1)C(=O)N2 (stereo unspecified)	-53.5%	29.1 µM [falling, single point]	29.1 µM [falling, single point]
CC(C)(C#CC(O)(c1ccccc1)c1ccccc1)N1CCCCC1	-23.4%	0.058 µM [falling, full curve, poor fit]	
Cn1c(CCC(=O)OCC(=O)NCc2ccccc2Cl)nc(=O)c2ccccc21	19.7%	4.11 µM [rising, full curve]	
O=C(OCC#CCSc1nnc(-c2ccncc2)o1)c1sc2ccccc2c1Cl	46.1%		29.1 µM [rising, single point]
Cc1nc2cc(N)ccc2n1-c1ccccc1			0.184 µM [rising, full curve]
CCOc1ccccc1N(CC(=O)Nc1ccccc1C(=O)NCc1ccco1)S(C)(=O)=O	-5.73%	3.26 µM [rising, partial curve]	
CCOc1ccc(N=Nc2cc(C(C)C)ccc2O)cc1	-70%	23.1 µM [falling, partial curve, poor fit]	25.9 µM [falling, single point]
CC(C)Oc1ccccc1-c1cc(C(=O)N/N=C/c2cccnc2)c2ccccc2n1	-26.9%		0.651 µM [falling, full curve, poor fit]
Cc1ccc(S(=O)(=O)Nc2nc3ccccc3nc2NCc2ccco2)cc1C	-30.3%	0.13 µM [falling, full curve, poor fit]	0.731 µM [falling, partial curve]
CCC(=O)c1ccc(OCC(=O)Nc2cccc(S(=O)(=O)N3CCCCCC3)c2)cc1	53%		6.51 µM [rising, partial curve, poor fit]
Nc1nnnn1N=C1CCCCC1	17.3%		0.00411 µM [rising, full curve, poor fit]
Cc1ccc(S(=O)(=O)c2c(N)n(CCN3CCOCC3)c3nc4ccccc4nc23)cc1C	-2.93%		
COc1cccc(OC)c1C(=O)Nc1cccc(-c2ccc(N3CCOCC3)nn2)c1	-56.6%		23.1 µM [falling, partial curve]
O=C1COc2ccc(N3C(=O)C=CC3=O)cc2N1	-60.5%	6.51 µM [falling, partial curve, poor fit]	6.51 µM [falling, single point]

SMILES	cell number change	AC50 [1]	AC50 [2]
CC(=O)c1cn(CC(=O)Nc2ccc(C)cc2C)c2ccccc12	-33.5%	9.2 µM [falling, partial curve]	6.51 µM [falling, full curve, poor fit]
COc1ccc(Oc2c(-c3ccc(O)cc3O)n[nH]c2C)cc1	61.2%	1.84 µM [rising, single point]	5.8 µM [rising, partial curve]
O=C(NCCNCc1ccc(F)cc1)c1ccco1	-0.827%	0.731 µM [falling, full curve]	
CC(=O)OCC(=O)c1c[nH]c2ccccc12	0.397%	1.03 µM [falling, partial curve, poor fit]	
Cc1nsc(N)c1C(=O)O	-27.8%	6.51 µM [falling, full curve]	
CC(=O)c1c(C)oc2ccc(N(C(C)=O)S(=O)(=O)c3ccc(Cl)c([N+](=O)[O-])c3)cc12	-39.6%	5.17 µM [falling, full curve]	29.1 µM [falling, single point]
O=C(C[n+]1cc(-c2ccc(Cl)c(Cl)c2)n2c1CCC2)OCc1ccccc1		20.6 µM [rising, partial curve]	0.259 µM [rising, full curve]
COc1ccccc1Nc1nc(C)cc(C)c1C(N)=O	5.98%	2.31 µM [rising, single point]	
COc1cc(CNCCc2ccc(S(N)(=O)=O)cc2)ccc1OCC(=O)NC1CCCCC1	138%	0.58 µM [rising, single point]	29.1 µM [rising, single point]
O=C(CSc1n[nH]c(-c2ccncc2)n1)Nc1ccccc1C(F)(F)F	18.4%		
CCOC(=O)c1ccccc1NC(=O)C1=COCCO1	-22.4%	0.731 µM [rising, single point]	
O=C(CCCCCN1C(=O)[C@@H]2Cc3ccccc3CN2C1=O)N[C@@H](Cc1ccc(O)cc1)C(=O)O	0.872%		
COCCCNC(=O)/C(C#N)=C/c1ccc(OCC(=O)O)c(OC)c1	-25.5%	3.66 µM [falling, single point]	6.51 µM [falling, single point]
COc1ccc(/C(C)=N\Nc2nc(-c3ccccc3)cc(=O)[nH]2)cc1	18.4%		
CCSc1ncc(/C=N/Nc2ccc(F)cc2)n1C	2.9%	6.51 µM [rising, partial curve, poor fit]	6.51 µM [rising, single point]
Cc1cc(NS(=O)(=O)N(C)C)ccc1C(C)C	-3.14%	2.59 µM [falling, partial curve]	
Cc1ccc(N(CC(=O)NC2CCCCC2C)S(=O)(=O)c2c(C)nn(C)c2C)cc1 (stereo unspecified)		5.17 µM [falling, partial curve]	
CCN1C(=O)c2cccc3c(S(=O)(=O)NC(Cc4c[nH]c5ccccc45)C(=O)O)ccc1c23 (stereo unspecified)	-34%	1.84 µM [falling, full curve]	0.206 µM [falling, full curve, poor fit]

3 structures out of the list, ordered by formula weight, smallest number first:
SMILES	cell number change	AC50 [1]	AC50 [2]
Cc1nsc(N)c1C(=O)O	-27.8%	6.51 µM [falling, full curve]	
CCOC(=O)c1ccccc1NC(=O)C1=COCCO1	-22.4%	0.731 µM [rising, single point]	
O=C(CSc1n[nH]c(-c2ccncc2)n1)Nc1ccccc1C(F)(F)F	18.4%		
